The text below walks through data of doi:10.1101/2024.10.11.617944.

The chains behind the UniProt entries cited, without tags or fusion partners.
UniProt Q39026: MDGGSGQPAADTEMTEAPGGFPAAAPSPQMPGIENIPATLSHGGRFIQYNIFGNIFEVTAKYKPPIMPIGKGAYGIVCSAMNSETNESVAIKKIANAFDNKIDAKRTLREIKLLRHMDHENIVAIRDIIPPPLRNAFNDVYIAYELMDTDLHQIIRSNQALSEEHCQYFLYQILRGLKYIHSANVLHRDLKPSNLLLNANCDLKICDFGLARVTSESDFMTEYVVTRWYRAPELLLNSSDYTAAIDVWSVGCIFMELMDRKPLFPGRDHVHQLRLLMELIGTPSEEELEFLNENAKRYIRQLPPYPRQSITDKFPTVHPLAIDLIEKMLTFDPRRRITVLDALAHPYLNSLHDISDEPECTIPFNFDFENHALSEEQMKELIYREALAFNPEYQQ
UniProt Q9FLI3: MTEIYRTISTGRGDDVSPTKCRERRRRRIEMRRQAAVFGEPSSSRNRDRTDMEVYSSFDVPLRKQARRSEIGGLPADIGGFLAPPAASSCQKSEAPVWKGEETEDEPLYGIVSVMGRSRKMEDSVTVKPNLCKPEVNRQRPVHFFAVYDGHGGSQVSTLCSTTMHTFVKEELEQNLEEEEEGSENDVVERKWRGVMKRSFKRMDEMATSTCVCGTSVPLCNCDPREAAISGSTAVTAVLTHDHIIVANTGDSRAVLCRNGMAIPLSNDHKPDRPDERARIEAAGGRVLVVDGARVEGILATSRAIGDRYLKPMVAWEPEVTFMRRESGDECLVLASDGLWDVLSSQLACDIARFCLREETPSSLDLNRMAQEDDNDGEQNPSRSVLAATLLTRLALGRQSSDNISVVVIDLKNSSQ

Results are given in words; binding and its absence hold for the method and conditions named. In cells and extracts the contact can be indirect. Some entries that bind do so weakly or less than the wild type. Sequences can lack the tags named with a protein.

Experiment in all cases: split reporter
Assay [1] has as its target T1, MPK3, split YFP fusion (Arabidopsis thaliana), Q39023.
T1 chain: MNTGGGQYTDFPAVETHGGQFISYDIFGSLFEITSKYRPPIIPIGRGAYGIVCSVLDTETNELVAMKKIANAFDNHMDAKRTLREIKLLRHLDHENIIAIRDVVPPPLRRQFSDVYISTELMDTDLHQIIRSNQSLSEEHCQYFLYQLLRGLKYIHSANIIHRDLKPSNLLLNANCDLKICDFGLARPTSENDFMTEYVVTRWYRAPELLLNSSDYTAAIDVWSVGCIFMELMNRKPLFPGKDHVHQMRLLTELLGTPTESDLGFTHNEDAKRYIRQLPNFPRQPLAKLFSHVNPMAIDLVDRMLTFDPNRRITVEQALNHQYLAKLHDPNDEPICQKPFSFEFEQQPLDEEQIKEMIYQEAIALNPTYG
As to conditions: remark: other sources report otherwise.

The target in assay [2] is MPK6, split YFP fusion (Arabidopsis thaliana) (UniProt Q39026).
For assay [3], the target named is T2, SnRK2.3, split YFP fusion (Arabidopsis thaliana) (UniProt Q39193).
T2 sequence: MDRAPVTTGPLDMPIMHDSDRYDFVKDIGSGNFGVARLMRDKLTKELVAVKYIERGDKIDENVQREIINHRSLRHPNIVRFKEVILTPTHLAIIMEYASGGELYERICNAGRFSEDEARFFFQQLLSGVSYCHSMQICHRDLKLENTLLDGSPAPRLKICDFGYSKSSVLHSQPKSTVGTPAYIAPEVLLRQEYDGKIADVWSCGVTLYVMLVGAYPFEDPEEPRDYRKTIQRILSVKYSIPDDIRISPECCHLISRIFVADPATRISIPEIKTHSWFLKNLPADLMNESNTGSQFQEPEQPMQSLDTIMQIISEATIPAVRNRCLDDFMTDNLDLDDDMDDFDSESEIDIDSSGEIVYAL

Assay [4] has as its target T3, AHG3, split YFP fusion (Arabidopsis thaliana) (UniProt P49598).
T3 sequence: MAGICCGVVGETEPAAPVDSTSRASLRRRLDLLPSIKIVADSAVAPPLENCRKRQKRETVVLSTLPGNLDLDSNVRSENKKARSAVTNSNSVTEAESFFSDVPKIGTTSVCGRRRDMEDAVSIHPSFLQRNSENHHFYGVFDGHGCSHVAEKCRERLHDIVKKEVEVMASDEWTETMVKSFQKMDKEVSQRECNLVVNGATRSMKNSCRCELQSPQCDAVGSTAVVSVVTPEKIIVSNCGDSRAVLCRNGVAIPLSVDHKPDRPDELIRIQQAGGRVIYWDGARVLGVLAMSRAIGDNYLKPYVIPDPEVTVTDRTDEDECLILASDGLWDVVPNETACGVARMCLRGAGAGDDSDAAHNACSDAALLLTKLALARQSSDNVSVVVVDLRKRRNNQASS

Assay [5] concerns the target T4, MPK3, split YFP fusion (Arabidopsis thaliana) (UniProt Q39023).
T4 sequence: T1 chain

Assay [6] deals with T5, GRF4 (14-3-3 phi), split YFP fusions (Arabidopsis thaliana) (UniProt P46077).
T5 sequence: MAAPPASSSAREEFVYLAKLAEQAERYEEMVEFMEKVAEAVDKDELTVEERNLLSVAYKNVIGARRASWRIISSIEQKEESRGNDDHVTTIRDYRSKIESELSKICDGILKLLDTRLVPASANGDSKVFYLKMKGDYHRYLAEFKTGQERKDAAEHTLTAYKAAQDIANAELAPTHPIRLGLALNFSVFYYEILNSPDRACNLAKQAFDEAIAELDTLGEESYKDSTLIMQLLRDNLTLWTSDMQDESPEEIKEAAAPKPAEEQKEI

Assay [7] deals with T6, GRF7 (14-3-3 nu), split YFP fusion (Arabidopsis thaliana) (UniProt Q96300).
T6 sequence: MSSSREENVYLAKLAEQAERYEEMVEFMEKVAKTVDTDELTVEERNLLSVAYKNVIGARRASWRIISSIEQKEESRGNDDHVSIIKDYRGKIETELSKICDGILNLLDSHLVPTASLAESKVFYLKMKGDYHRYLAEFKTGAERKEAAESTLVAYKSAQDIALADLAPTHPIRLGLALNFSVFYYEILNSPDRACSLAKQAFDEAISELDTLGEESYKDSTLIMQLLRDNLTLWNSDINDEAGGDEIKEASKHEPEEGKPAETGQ

In assay [8] the target is T7, PYL9, split YFP fusion (Arabidopsis thaliana) (UniProt Q84MC7).
T7 sequence: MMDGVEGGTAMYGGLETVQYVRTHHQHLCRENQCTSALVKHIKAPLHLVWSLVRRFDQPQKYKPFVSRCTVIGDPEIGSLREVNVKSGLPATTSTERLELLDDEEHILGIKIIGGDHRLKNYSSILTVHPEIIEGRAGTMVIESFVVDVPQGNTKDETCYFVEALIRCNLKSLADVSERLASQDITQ

For assay [9], the target named is T8, GRF3 (14-3-3 psi), split YFP fusion (Arabidopsis thaliana) (UniProt P42644).
T8 sequence: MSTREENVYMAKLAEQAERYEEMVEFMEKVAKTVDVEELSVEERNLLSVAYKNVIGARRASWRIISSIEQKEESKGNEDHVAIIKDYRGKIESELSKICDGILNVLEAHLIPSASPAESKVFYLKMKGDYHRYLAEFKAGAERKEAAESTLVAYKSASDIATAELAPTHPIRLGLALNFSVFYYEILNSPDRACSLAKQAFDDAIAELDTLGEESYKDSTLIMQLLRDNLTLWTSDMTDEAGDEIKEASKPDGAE

For assay [10], the target named is T9, PYL2, split YFP fusion (Arabidopsis thaliana) (UniProt O80992).
T9 sequence: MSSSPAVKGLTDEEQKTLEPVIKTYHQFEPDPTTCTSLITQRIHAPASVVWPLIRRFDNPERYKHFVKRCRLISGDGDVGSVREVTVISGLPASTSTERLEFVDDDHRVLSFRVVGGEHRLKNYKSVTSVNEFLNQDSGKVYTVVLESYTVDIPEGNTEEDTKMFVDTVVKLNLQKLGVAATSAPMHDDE

Assay [11] concerns the target T10, SnRK2.6, split YFP fusion (Arabidopsis thaliana) (UniProt Q940H6).
T10 sequence: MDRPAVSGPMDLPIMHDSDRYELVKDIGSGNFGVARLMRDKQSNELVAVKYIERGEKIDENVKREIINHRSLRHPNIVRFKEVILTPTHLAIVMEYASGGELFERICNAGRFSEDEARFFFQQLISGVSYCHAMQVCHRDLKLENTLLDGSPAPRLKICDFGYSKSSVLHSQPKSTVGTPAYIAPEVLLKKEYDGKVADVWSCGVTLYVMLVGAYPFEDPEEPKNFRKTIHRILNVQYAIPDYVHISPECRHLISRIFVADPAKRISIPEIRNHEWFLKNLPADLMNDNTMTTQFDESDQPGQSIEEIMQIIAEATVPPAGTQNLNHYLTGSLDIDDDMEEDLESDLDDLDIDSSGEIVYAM

For assay [12], the target named is AHG1, split YFP fusion (Arabidopsis thaliana) (UniProt Q9FLI3).
Assay [13] deals with T11, MPK7, split YFP fusion (Arabidopsis thaliana) (UniProt Q39027).
T11 sequence: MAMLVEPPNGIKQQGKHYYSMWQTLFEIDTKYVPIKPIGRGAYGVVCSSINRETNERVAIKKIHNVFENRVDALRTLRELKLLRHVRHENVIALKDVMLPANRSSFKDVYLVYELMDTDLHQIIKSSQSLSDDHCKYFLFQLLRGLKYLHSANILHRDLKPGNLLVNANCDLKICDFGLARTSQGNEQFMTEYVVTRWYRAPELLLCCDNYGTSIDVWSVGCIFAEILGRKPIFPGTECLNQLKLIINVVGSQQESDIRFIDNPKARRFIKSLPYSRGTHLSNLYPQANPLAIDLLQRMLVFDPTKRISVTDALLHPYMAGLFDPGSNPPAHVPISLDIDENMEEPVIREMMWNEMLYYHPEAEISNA

B1: GRF4 (14-3-3 phi), split YFP fusions, P46077 1-267 (protein)
chain: T5 sequence
Regarding B1, in assay [1], the binding entry is recorded as “binds”.

B2: AFP1, split YFP fusion (protein, UniProt Q9LQ98 1-345)
chain: MAEANERSKEMARSNSCVFPRDLLQRFISNSVEGEDDDEEEDDDEIELNLGLSLGGRFGVDKSNKLVRSSSVVVTMPLFREDHHHHQAAAMITTKVSTETVAGATRGTGLMRTTSLPAESEEEWRKRKEMQTLRRMAAKRRRSEKLRTGVGGGNSNNPEEAATATASRRRGRPSSGLPRWSATANKSGLLRQHSAGLDSLQVSGESLGGGRAAGSSSSVSELETKASSDEARSLPSTTQPQQETTTKPTNRLRRLSSVDMNMKMEPQGKGKSEMPCVFTKGDGPNGKRVDGILYRYGSGEEVRIMCVCHGDFLSPADFVKHAGGPHVDHPLRHIVVNTSSPSNLL
Turning to B2, the binding entry in assay [2] is “binds”; in [3], “binds”; in assay [4], “binds weakly”; in [5], “binds”; in [6], “binds”; in assay [7], “binds weakly”. For the same molecule, the binding entry in assay [8], in assay [9], in assay [10], in assay [11] and in assay [12] was “binds” throughout.

B3: AFP2, split YFP fusion (protein, UniProt Q9LMX5 1-348)
chain: MGEASRQQRAWNREMTVTTNLSLDIDKYPRDLLRGFMSENGGGRVFHGGETNCDDESTIELNLGLSLGGRFGVDKTPRKLKRSSSVLDTVPFNDSTVAEPENYTVGLERTTSLPAEMEEEWRKRKEMQSLRRMEAKRRRCEKQSFRVGNSDDQTVSFENERWVTASKSGFLQRHLVSSNRQVCGVDSDGGGATGGGSSSSLSELDNKNQQGSSNSCNDERSPKIVAGCSSNSGSQGTERPSVTRANKVNENENEKRVRSEDSVDRKGKGMATSTGLVDMPCVFTKGDGPNGRRVDGILYKYGKGEEVRIMCICHGSFLTPAEFVKHGGGGDVDRPLRHIVVNTSSSTF
Take B3: the binding result in [13] is “binds”; in assay [2], “binds”; in assay [3] it was “binds”; in assay [4] it was “binds weakly”; in assay [5] it was “binds”; in [6] it was “binds”. The binding result in assay [8], in assay [9], in [10], in assay [11] and in [12] was “binds” throughout.
